In patent US6476196:
No constants are given. Whether binding was seen depends on the method and setting. A result given as binding can be weak or reduced; the word gives no strength.

Experiments:
[1] = molecular target: Rat ER-β ligand-binding domain (LBD) (rat); assay: X-ray co-crystal structure; LBD with estradiol
[2] = molecular target: Rat ER-β ligand-binding domain (LBD) (rat); assay: X-ray co-crystal structure; LBD with 17-epiestriol
[3] = molecular target: Rat ER-β ligand-binding domain (LBD) (rat); assay: X-ray co-crystal structure, about 2.1 Å; LBD with estradiol, LBD and peptide mixed 1:5
[4] = molecular target: Rat ER-β ligand-binding domain (LBD) (rat); assay: X-ray co-crystal structure, about 1.8 Å; LBD with 17-epiestriol, LBD and peptide mixed 1:5

binding [1]: binds
binding [2]: binds
binding [3]: binds
binding [4]: binds
Binder: HPPAIQSLINLLADNRY [LXXLL coactivator peptide …, residues 338-354 of the coactivator independent of AF2 function (CIA)]
